Assay: Removal of inhibitor from a rFVIIa formulation on a Chelex 100 column, content by GPC
Conditions: elution volume 0.5 ml to 3 ml
Protocol: The ability of Chelex 100 to remove inhibitor 2-[3-(4-Carbamimidoylphenyl)-ureido]-N-[1-(3-methoxyphenyl)-ethyl]-acetamide from a rFVIIa formulation was investigated in the following way: […]
A (frozen) solution of rFVIIa bulk containing 1.4 mg/ml rFVIIa, 50 mM NaCl, 10 mM CaCl2 2H2O and 10 mM Glycylglycine was thawed and mixed with an inhibitor solution of 4.5 mM inhibitor 2-[3-(4-Carbamimidoylphenyl)-ureido]-N-[1-(3-methoxyphenyl)-ethyl]-acetamide containing 50 mM NaCl, 10 mM CaCl2 2H2O and 10 mM Glycylglycine.
The mixture ratio was: rFVIIa bulk:inhibitor solution=2:1. the final solution 10 mM histidine was added and pH was adjusted to 6.50.
Chelex was prepared in the following way:
A NAP™ column from Pharmacia was emptied for column material which was replaced by Chelex 100 material corresponding to a column height of approximately 3 mm. The column was equilibrated with the following buffer: 50 mM NaCl, 10 mM Histidine and 10 mM Glycylglycine, pH=6.50.
10 ml of the rFVIIa/inhibitor solution was added to the column in aliquots of 0.5 ml and was collected in fractions of 0.5 ml.
The samples was analysed for content of inhibitor and rFVIIa by GPC.

SMILES: COc1cccc(C(C)NC(=O)CNC(=O)Nc2ccc(C(=N)N)cc2)c1 (centres unmarked) [2-[3-(4-Carbamimidoylphenyl)-ureido]-N-[1-(3-methoxyphenyl)-ethyl]-acetamide]
- inhibitor concentration in eluate after Chelex 100 column (initial value 1.5 mM, pH 6.50): less than 175 microM
- reduction factor of inhibitor concentration (relative to initial value 1.5 mM): approximately 10
